Test results taken from PMC13498733.

Protein sequences, listed by entry. Tags and fused reporters are not part of them. Lines headed by an entry give the natural chain unless they say otherwise; changes in a name come on top.
UniProt P11260: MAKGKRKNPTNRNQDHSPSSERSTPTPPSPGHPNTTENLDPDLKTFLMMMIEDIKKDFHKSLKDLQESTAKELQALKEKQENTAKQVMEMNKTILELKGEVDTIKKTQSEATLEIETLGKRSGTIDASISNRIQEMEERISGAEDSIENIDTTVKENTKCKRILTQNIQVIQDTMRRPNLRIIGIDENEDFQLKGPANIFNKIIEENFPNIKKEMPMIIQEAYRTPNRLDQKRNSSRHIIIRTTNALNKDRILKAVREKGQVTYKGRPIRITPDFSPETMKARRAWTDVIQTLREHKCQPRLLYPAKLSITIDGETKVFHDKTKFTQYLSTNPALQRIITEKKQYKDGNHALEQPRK

B1: ATXN2 (mouse) (protein, UniProt O70305 1-1285)
chain: MRSSTAAVQRPAAGDPEPRRPAGWAARRSLPRTARRGGRGGAVAYPSAGPPPRGPGAPPRGPRSPPCASDCFGSNGHGASRPGSRRLLGVCGPPRPFVVVLLALAPAATPARACPPGVRASPPRSGVSSSARPAPGCPRPACEPVYGPLTMSLKPQPQPPAPATGRKPGGGLLSSPGAAPASAAVTSASVVPAPAAPVASSSAAAGGGRPGLGRGRNSSKGLPQPTISFDGIYANVRMVHILTSVVGSKCEVQVKNGGIYEGVFKTYSPKCDLVLDAAHEKSTESSSGPKREEIMESVLFKCSDFVVVQFKDTDSSYARRDAFTDSALSAKVNGEHKEKDLEPWDAGELTASEELELENDVSNGWDPNDMFRYNEENYGVVSTYDSSLSSYTVPLERDNSEEFLKREARANQLAEEIESSAQYKARVALENDDRSEEEKYTAVQRNCSDREGHGPNTRDNKYIPPGQRNREVLSWGSGRQSSPRMGQPGPGSMPSRAASHTSDFNPNAGSDQRVVNGGVPWPSPCPSHSSRPPSRYQSGPNSLPPRAATHTRPPSRPPSRPSRPPSHPSAHGSPAPVSTMPKRMSSEGPPRMSPKAQRHPRNHRVSAGRGSMSSGLEFVSHNPPSEAAAPPVARTSPAGGTWSSVVSGVPRLSPKTHRPRSPRQSSIGNSPSGPVLASPQAGIIPAEAVSMPVPAASPTPASPASNRALTPSIEAKDSRLQDQRQNSPAGSKENVKASETSPSFSKADNKGMSPVVSEHRKQIDDLKKFKNDFRLQPSSTSESMDQLLSKNREGEKSRDLIKDKTEASAKDSFIDSSSSSSNCTSGSSKTNSPSISPSMLSNAEHKRGPEVTSQGVQTSSPACKQEKDDREEKKDTTEQVRKSTLNPNAKEFNPRSFSQPKPSTTPTSPRPQAQPSPSMVGHQQPAPVYTQPVCFAPNMMYPVPVSPGVQPLYPIPMTPMPVNQAKTYRAGKVPNMPQQRQDQHHQSTMMHPASAAGPPIVATPPAYSTQYVAYSPQQFPNQPLVQHVPHYQSQHPHVYSPVIQGNARMMAPPAHAQPGLVSSSAAQFGAHEQTHAMYACPKLPYNKETSPSFYFAISTGSLAQQYAHPNAALHPHTPHPQPSATPTGQQQSQHGGSHPAPSPVQHHQHQAAQALHLASPQQQSAIYHAGLAPTPPSMTPASNTQSPQSSFPAAQQTVFTIHPSHVQPAYTTPPHMAHVPQAHVQSGMVPSHPTAHAPMMLMTTQPPGPKAALAQSALQPIPVSTTAHFPYMTHPSVQAHHQQQL
B2: RPAP2 (mouse) (protein, UniProt Q8VC34 1-614)
chain: MADSAVPCSLGPSTRASSTHRDATGTKQTRALKRGDASKRQAELEAAIQRKVEFERKAVRIVEQLLEENITEEFLKECGMFITPAHYSDVVDERSIIKLCGYPLCQKKLGVIPKQKYRISTKTNKVYDITERKSFCSNFCYRASKFFETQIPKTPVWVREEERPPDFQLLKKGQSGSSGEVVQFFRDAVTAADVDGSGALEAQCDPASSSSWSERASDEEEQGFVSSLLPGNRPKAVDTRPQPHTKSSIMRKKAAQNVDSKEGEQTVSEVTEQLDNCRLDSQEKVATCKRPLKKESTQISSPGPLCDRFNTSAISEHKHGVSQVTLVGISKKSAEHFRSKFAKSNPGSGSASGLVHVRPEVAKANLLRVLSDTLTEWKTEETLKFLYGQNHDSVCLKPSSASEPDEELDEDDISCDPGSCGPALSQAQNTLDATLPFRGSDTAIKPLPSYESLKKETEMLNLRVREFYRGRCVLNEDTTKSQDSKESVLQRDPSFPLIDSSSQNQIRRRIVLEKLSKVLPGLLGPLQITMGDIYTELKNLIQTFRLSNRNIIHKPVEWTLIAVVLLLLLTPILGIQKHSPKNVVFTQFIATLLTELHLKFEDLEKLTMIFRTSC
B3: NUP50 (mouse) (protein, UniProt Q9JIH2 1-466)
chain: MAKRVAEKELTDRNWDEEDEVEEMGTFSVASEEVMKNRAVKKAKRRNVGFESDSGGAFKGFKGLVVPSGGGGFSGFGGSGGKPLEGLTNGNSTDNATPFSNVKTAAEPKAAFGSFAVNGPTTLVDKKISSPKCNNSNQPPSSGPASSTACPGNAYHKQLAGLNCSVRDWIVKHVNTNPLCDLTPIFKDYERYLATIEKQLENGGGSSSESQTDRATAGMEPPSLFGSTKLQQESPFSFHGNKAEDTSEKVEFTAEKKSDAAQGATSASFSFGKKIESSALGSLSSGSLTGFSFSAGSSSLFGKDAAQSKAASSLFSAKASESPAGGGSSECRDGEEEENDEPPKVVVTEVKEEDAFYSKKCKLFYKKDNEFKEKGVGTLHLKPTATQKTQLLVRADTNLGNILLNVLIAPNMPCTRTGKNNVLIVCVPNPPLDEKQPTLPATMLIRVKTSEDADELHKILLEKKDA

molecular target: LINE-1 ORF1p (mouse) (mouse (endogenous in MN9D)) (UniProt P11260); experiment: affinity purification with mass spectrometry; IP of endogenous ORF1p with antibody-coupled Dynabeads from sonicated lysate of differentiated MN9D neurons (day 10), against rabbit IgG, n = 5 IPs; 10 mM Tris HCl pH 8, 150 mM NaCl, overnight 4°C; on-bead digest, LC-MS/MS (DIA), label-free quantification; ratio ≥2, P ≤0.05

binding | Binder
binds | B1
binds | B2
binds | B3

These are yes or no findings as the source states them, for the method shown. Binding seen in cells or lysates may run through a third protein. Here binding means that the protein was enriched with, or labelled near, the bait; the list need not be complete.
